# Experimental data taken from PubChem BioAssay AID445 (National Center for Advancing Translational Sciences (NCATS), 2006).
# The other results are listed elsewhere or left out. Further columns of the screen follow, without active or inactive calls. Most of these compounds were active or inconclusive in the main read-out, so they are no random draw. Words in brackets tell the shape of the fitted curve; partial curves, single points and poor fits give uncertain potencies.
# Test: IkB Signaling
# Conditions: ABC-DLBCL IkBa-CBG/CBR dual luciferase ratio (green luciferase fused to IkBa over red control in OCI-Ly3 lymphoma cells), 4 h; measured here: control luc red channel unless noted
# How it was run: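 In this assay, an IκBα–CBG68 fusion accumulates when IKK-driven degradation is blocked; native CBR normalizes for cell number. OCI-Ly3 cells were treated 4 h with compound and doxycycline, then green and red light read after Chroma-Glo addition.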
row,SMILES,AC50
1,CCC(Sc1nc2cc3c(cc2c(=O)n1CCCCCC(=O)NCc1ccc2c(c1)OCO2)OCO3)C(=O)NCCCOC (stereo not given),"39.8 µM [falling, single point]"
2,COc1ccc(N(C(=O)Nc2ccc(Cl)cc2)C2=NCCC2)cc1,"12.6 µM [falling, partial curve]"
3,Cc1c(Cl)cccc1NC(=O)c1cc(-c2cccc(Cl)c2)on1,"3.16 µM [falling, partial curve, poor fit]"
4,Cc1ccc(-c2cc(C(=O)NCCCN3CCOCC3)no2)cc1,"15.8 µM [falling, partial curve]"
5,O=C(Nc1cccc(Br)c1)Nc1nc2c(s1)CCCCCC2,"0.00631 µM [rising, full curve, poor fit]"
6,COc1cc2c(C(=O)N3CCN(c4cccc(Cl)c4)CC3)cn(C)c(=O)c2cc1OC,"15.8 µM [falling, partial curve]"
7,CCc1ccc(CNC(=O)CN2C(=O)CSc3ccc(S(=O)(=O)N4CCOCC4)cc32)cc1,"39.8 µM [falling, single point]"
8,COc1cccc(C(=O)N(Cc2ccc(N(C)C)cc2)Cc2ccco2)c1,"31.6 µM [falling, single point]"
9,CCc1ccc(S(=O)(=O)NCc2cccn2Cc2cccc(C)c2)cc1,"15.8 µM [falling, partial curve]"
10,COc1cc(OC)c(NC(=O)CCc2nc(-c3cccs3)no2)cc1Cl,"12.6 µM [falling, partial curve]"
11,COc1cc(C(=O)Nc2sc3c(c2C(N)=O)CCC(C)C3)cc(OC)c1OC (stereo not given),"10 µM [falling, partial curve]"
12,COc1ccc(CCNC(=O)CSc2cc(=O)n(C)c3ccccc23)cc1OC,"3.16 µM [rising, partial curve, poor fit]"
13,O=c1c(O)c(-c2ccc(O)cc2)oc2ccc(O)cc12,"7.94 µM [falling, single point]"
14,O=C(NCc1cccc(Cl)c1)c1cnc(N2CCCCC2)c2ccccc12,"39.8 µM [falling, single point]"
15,Cc1cccc(N2CCN(c3ncnc4onc(C)c34)CC2)c1C,"7.94 µM [falling, single point]"
16,CCc1ccc(C2N=C(N)Nc3nc4ccccc4n32)cc1 (stereo not given),"15.8 µM [falling, single point]"
17,Cc1ccc(-n2ncc(C(=O)NCCc3ccsc3)c2C2CCN(C(=O)OC(C)(C)C)CC2)c(C)c1,"31.6 µM [falling, partial curve]"
18,C=C(C)COc1ccc(-c2n[nH]c(C)c2-c2ccccc2OC)c(O)c1,"25.1 µM [falling, partial curve]"
19,COc1ccc(Cl)cc1NC(=O)CN(c1cccc(C)c1C)S(C)(=O)=O,"39.8 µM [falling, single point]"
20,COc1cccc2c1[C@@H]1CN(CCCCn3c(=O)[nH]c4c(sc5ncc(-c6ccccc6)nc54)c3=O)C[C@H]1CO2,"25.1 µM [falling, partial curve, poor fit] [measured here: IkB-luc green channel]"

row,SMILES,AC50
1,COc1cccc(C(=O)Nc2nc3c(s2)CCCC3)c1,"10 µM [falling, partial curve]"
2,CN(Cc1ccccc1)C(=O)C(=O)Nc1ccc2nc3n(c(=O)c2c1)CCCCC3,"12.6 µM [falling, partial curve]"
3,CNc1ccc(-c2nc(-c3ccccn3)no2)cc1[N+](=O)[O-],"25.1 µM [falling, single point]"
4,CCOc1cc(CNCCSc2nnnn2C)ccc1OCc1ccc(Cl)cc1Cl,"20 µM [falling, partial curve]"
5,Cc1ccc(NC(=O)CN2C(=O)COc3ccc(S(=O)(=O)N4CCCCC4)cc32)cc1Cl,"10 µM [falling, single point]"
6,c1ccc(OCc2nnc3sc(-c4cccs4)nn23)cc1,"5.01 µM [falling, full curve]"
7,CCOC(=O)c1ccc(NC(=O)c2ccc3c(c2)OCO3)cc1,"1 µM [falling, partial curve]"
8,COC(=O)c1ccc(NC(=O)CC2C(=O)N(c3cccc(F)c3)C(=O)N2CC(C)C)cc1 (stereo not given),"31.6 µM [falling, single point]"
9,Cc1ccc(-n2nc(C(=O)N3CCCCC3)c(=O)n(C)c2=O)cc1,"10 µM [falling, partial curve, poor fit]"
10,CC1(C)C(=O)NC2=C1C(=O)C(=O)c1ccccc12,"10 µM [falling, partial curve]"
11,Cc1nonc1NC(=O)CSc1nc(C2CCCCC2)nc2ccccc12,"15.8 µM [falling, partial curve]"
12,CN(CC(=O)Nc1ccc(F)c(F)c1F)c1cnccn1,"25.1 µM [falling, partial curve]"
13,CCOc1ccc(Nc2c(S(=O)(=O)c3ccc(Cl)cc3)cnc3ccc(OC)cc23)cc1,"15.8 µM [falling, single point]"
14,CCOC(=O)CC(NC(=O)CCc1c(C)nc2c(-c3ccccc3)c(C)nn2c1C)c1ccc(C)cc1 (stereo not given),"31.6 µM [falling, single point]"
15,COc1ccc(-c2c3c(=O)n(C)c(=O)n(C)c3cn2-c2cccc(N)c2)cc1,"39.8 µM [falling, single point]"
16,Cc1noc(/C=C/N(C)C)c1S(=O)(=O)N1CCN(c2ccccc2)CC1,"6.31 µM [falling, partial curve]"
17,COc1ccc(Cn2ccc3nc(C)c(C(=O)Nc4ccc(F)cc4)cc3c2=O)cc1,"15.8 µM [falling, partial curve]"
18,CCn1cc(C(=O)NCCc2ccc(Cl)cc2)c(=O)c2cc(S(=O)(=O)N3CCc4ccccc4C3)ccc21,"10 µM [falling, partial curve]"
19,COc1ccccc1NC(=O)c1oc2ccccc2c1NC(=O)C(C)C,"12.6 µM [falling, partial curve]"
20,Cc1cccc(NC(=O)CSc2nnc3scc(-c4ccccc4)n23)c1,"25.1 µM [falling, partial curve]"

# A few values from the entries so far.
# Under AC50, `COc1ccc(Cn2ccc3nc(C)c(C(=O)Nc4ccc(F)cc4)cc3c2=O)cc1` reads 15.8 µM [falling, partial curve]
# Under AC50, `COc1cccc(C(=O)Nc2nc3c(s2)CCCC3)c1` reads 10 µM [falling, partial curve]
# Under AC50, `CN(Cc1ccccc1)C(=O)C(=O)Nc1ccc2nc3n(c(=O)c2c1)CCCCC3` reads 12.6 µM [falling, partial curve]
